Laboratory results from patent US5952530A, “Separation processes” (Union Carbide Chemicals & Plastics Technology Corporation, priority 1998, dated 1999).

Assay: Rhodium remaining in the polar phase after extraction
Format: physicochemical

## rhodium
Ligand B 0.8 wt%, 223 ppm rhodium, polar solvent A (anhydrous acetonitrile), Example 33
  Final [Rhodium]: 5 parts per million
Ligand B 0.8 wt%, 223 ppm rhodium, polar solvent C (DMSO), Example 35
  Final [Rhodium]: 2 parts per million
Ligand B 0.8 wt%, 223 ppm rhodium, polar solvent W (acetonitrile, 1 wt% water), Example 34
  Final [Rhodium]: 1 parts per million
Ligand C 0.2 wt%, valeraldehyde 16.1 wt%, acetonitrile/catalyst 0.56, initial rhodium 38 ppm, Example 37
  Final [Rhodium]: 4 parts per million
Ligand C 0.5 wt%, valeraldehyde 37.3 wt%, acetonitrile/catalyst 1.7, initial rhodium 99 ppm, Example 36
  Final [Rhodium]: 5 parts per million
Ligand E, butyraldehyde 5.2, polar solvent A, Example 29
  Final [Rhodium]: 196 ppb
Ligand E, butyraldehyde 39.2, polar solvent A, Example 30
  Final [Rhodium]: 1628 ppb
Ligand E, no aldehyde, polar solvent A (anhydrous acetonitrile), Example 26
  Final [Rhodium]: 237 ppb
Ligand E, no aldehyde, polar solvent C (DMSO), Example 28
  Final [Rhodium]: 1148 ppb
Ligand E, no aldehyde, polar solvent W (acetonitrile, 1 wt% water), Example 27
  Final [Rhodium]: 381 ppb
Ligand E, valeraldehyde 5.21, polar solvent A, Example 32
  Final [Rhodium]: 196 ppb
Ligand E, valeraldehyde 24.3, polar solvent A, Example 31
  Final [Rhodium]: 252 ppb
Ligand H 0.4 wt%, valeraldehyde 34.2 wt%, acetonitrile/catalyst 0.83, initial rhodium 121 ppm, Example 38
  Final [Rhodium]: 22 parts per million
